The test system of this assay is mice, ADJ-PC-20 plasma cell tumor sc, T/C %. Put plainly: NCI In Vivo Anticancer Drug Screen. Data for tumor model ADJ-PC-20 Plasma Cell (subcutaneous) in unknown mice. Conditions: T/C endpoint: mean tumor weight, evaluation day not shown, higher T/C = larger tumour. On the procedure:
The antitumor activity of compounds was measured in mice bearing transplantable tumors. Survival or tumor size were measured and the results are expressed as the measurement made in the treated group (T) divided by the measurement made in the vehicle treated control group (C). The tumor model used in this assay is ADJ-PC-20 Plasma Cell (subcutaneous) in unknown mice

Where [1] appears, read: dose: 2.5 mg/kg/injection, schedule: Q01DX010 (ip), vehicle: carboxymethylcellulose (CMC).
Where [2] appears, read: dose: 5.0 mg/kg/injection, schedule: Q01DX010 (ip), vehicle: carboxymethylcellulose (CMC).
Where [3] appears, read: dose: 10.0 mg/kg/injection, schedule: Q01DX010 (ip), vehicle: carboxymethylcellulose (CMC).

The list is a part of this screen's results and no random one: it gathers some chemical classes. Not every dose and run of a compound is shown. T/C is the treated group as % of the vehicle group. Some entries show no survivor count and are marked so; the dose need not have been tolerated. Schedules are NCI's codes, read here as Q, the interval in days (D) or hours (H), X, the number of doses. Some entries hold several experiments; the results are listed from low to high.

The results in this text go back to PubChem BioAssay AID332 (DTP/NCI, 2004).

`ClCCNCCCl`: the T/C is 111 % of control [survivor count not shown] (dose: 3.1 mg/kg/injection, schedule: Q01DX010 (ip), vehicle: carboxymethylcellulose (CMC)); 156 % of control [survivor count not shown] (dose: 6.25 mg/kg/injection, schedule: Q01DX010 (ip), vehicle: carboxymethylcellulose (CMC)); 76 % of control [survivor count not shown] (dose: 12.5 mg/kg/injection, schedule: Q01DX010 (ip), vehicle: carboxymethylcellulose (CMC)); 60 % of control [survivor count not shown] (dose: 25.0 mg/kg/injection, schedule: Q01DX010 (ip), vehicle: carboxymethylcellulose (CMC)).
In the case of `ClCCN(CCCl)Cc1nc2ccccc2[nH]1`, the T/C is, setting by setting: (dose: 1.25 mg/kg/injection, schedule: Q01DX010 (ip), vehicle: carboxymethylcellulose (CMC)) 54 % of control [survivor count not shown]; under setting [1], 109 % of control [survivor count not shown]; under setting [2], 61 [survivor count not shown] and 73 % of control [survivor count not shown]; under setting [3], 11 [survivor count not shown] and 35 % of control [survivor count not shown].
In the case of `NC(Cc1ccccc1N(CCCl)CCCl)C(=O)O` (stereo unspecified), the T/C runs as follows: (dose: 0.12 mg/kg/injection, schedule: Q01DX011 (ip), vehicle: carboxymethylcellulose (CMC)) 119 % of control [survivor count not shown]; (dose: 0.25 mg/kg/injection, schedule: Q01DX011 (ip), vehicle: carboxymethylcellulose (CMC)) 104 % of control [survivor count not shown]; (dose: 0.5 mg/kg/injection, schedule: Q01DX010 (ip), vehicle: carboxymethylcellulose (CMC)) 48 % of control [survivor count not shown]; (dose: 0.5 mg/kg/injection, schedule: Q01DX011 (ip), vehicle: carboxymethylcellulose (CMC)) 64 % of control [survivor count not shown]; (dose: 1.0 mg/kg/injection, schedule: Q01DX010 (ip), vehicle: carboxymethylcellulose (CMC)) 5 % of control [survivor count not shown]; (dose: 1.0 mg/kg/injection, schedule: Q01DX011 (ip), vehicle: carboxymethylcellulose (CMC)) 57 % of control [survivor count not shown]. Further, the T/C (dose: 2.0 mg/kg/injection, schedule: Q01DX011 (ip), vehicle: carboxymethylcellulose (CMC)) was 9 % of control [survivor count not shown].
For the compound `NC(Cc1cccc(N(CCCl)CCCl)c1)C(=O)O` (stereo unspecified), the T/C (dose: 0.04 mg/kg/injection, schedule: Q01DX010 (ip), vehicle: carboxymethylcellulose (CMC)) is 93 % of control [survivor count not shown]; the T/C (dose: 0.08 mg/kg/injection, schedule: Q01DX010 (ip), vehicle: carboxymethylcellulose (CMC)) is 106 % of control [survivor count not shown]; the T/C (dose: 0.16 mg/kg/injection, schedule: Q01DX010 (ip), vehicle: carboxymethylcellulose (CMC)) is 108 % of control [survivor count not shown]; the T/C (dose: 0.31 mg/kg/injection, schedule: Q01DX010 (ip), vehicle: carboxymethylcellulose (CMC)) was 74 % of control [survivor count not shown]; the T/C (dose: 0.63 mg/kg/injection, schedule: Q01DX010 (ip), vehicle: carboxymethylcellulose (CMC)) was 6 % of control [survivor count not shown].
Consider `CC(C(=O)O)N(CCCl)CCCl` (stereo unspecified), for which the T/C reads like this: under setting [1], 87 % of control [survivor count not shown]; under setting [2], 107 % of control [survivor count not shown]; under setting [3], 81 % of control [survivor count not shown].
Consider `O=C(O)CN(CCCl)CCCl`, for which the T/C (dose: 0.5 mg/kg/injection, schedule: Q01DX010 (ip), vehicle: saline) was 106 % of control [survivor count not shown]; the T/C (dose: 1.0 mg/kg/injection, schedule: Q01DX010 (ip), vehicle: saline) was 121 % of control [survivor count not shown]; the T/C (dose: 2.0 mg/kg/injection, schedule: Q01DX010 (ip), vehicle: saline) was 119 % of control [survivor count not shown]; the T/C (dose: 4.0 mg/kg/injection, schedule: Q01DX010 (ip), vehicle: saline) was 83 % of control [survivor count not shown].
Regarding `ClCCN(CCCl)c1ccccc1`, the T/C runs as follows: (dose: 2.4 mg/kg/injection, schedule: Q01DX010 (ip), vehicle: carboxymethylcellulose (CMC)) 60 % of control [survivor count not shown]; (dose: 3.12 mg/kg/injection, schedule: Q01DX010 (ip), vehicle: methylcellulose (MC)) 15 % of control [survivor count not shown]; (dose: 4.7 mg/kg/injection, schedule: Q01DX010 (ip), vehicle: carboxymethylcellulose (CMC)) 23 % of control [survivor count not shown]; (dose: 6.25 mg/kg/injection, schedule: Q01DX010 (ip), vehicle: methylcellulose (MC)) 6 % of control [survivor count not shown].
